This passage reports binding results from PMC7206007.

By UniProt entry, the sequences of proteins in these tests, tags left out. Where a name states a change or a piece, a line headed by the entry shows the natural chain unless it says otherwise.
UniProt Q96EB6: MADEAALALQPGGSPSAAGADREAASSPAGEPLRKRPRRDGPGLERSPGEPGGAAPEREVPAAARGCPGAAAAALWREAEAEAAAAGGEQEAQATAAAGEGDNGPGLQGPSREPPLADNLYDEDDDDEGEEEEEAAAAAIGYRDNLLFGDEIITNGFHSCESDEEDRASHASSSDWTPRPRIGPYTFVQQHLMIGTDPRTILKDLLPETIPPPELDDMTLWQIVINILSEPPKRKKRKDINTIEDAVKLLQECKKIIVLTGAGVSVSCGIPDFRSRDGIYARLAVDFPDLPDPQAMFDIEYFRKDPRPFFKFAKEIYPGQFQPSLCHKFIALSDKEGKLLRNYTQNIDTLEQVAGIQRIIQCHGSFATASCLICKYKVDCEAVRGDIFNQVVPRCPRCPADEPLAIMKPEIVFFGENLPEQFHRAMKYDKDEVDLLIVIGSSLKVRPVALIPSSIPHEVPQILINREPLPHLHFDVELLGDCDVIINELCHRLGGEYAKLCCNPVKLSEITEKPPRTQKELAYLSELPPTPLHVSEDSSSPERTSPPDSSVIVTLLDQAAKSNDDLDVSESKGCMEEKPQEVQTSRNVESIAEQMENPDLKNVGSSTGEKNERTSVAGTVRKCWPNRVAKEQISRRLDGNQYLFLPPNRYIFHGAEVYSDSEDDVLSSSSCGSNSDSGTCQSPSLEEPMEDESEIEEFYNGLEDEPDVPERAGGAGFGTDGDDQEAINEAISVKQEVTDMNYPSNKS
UniProt O96017: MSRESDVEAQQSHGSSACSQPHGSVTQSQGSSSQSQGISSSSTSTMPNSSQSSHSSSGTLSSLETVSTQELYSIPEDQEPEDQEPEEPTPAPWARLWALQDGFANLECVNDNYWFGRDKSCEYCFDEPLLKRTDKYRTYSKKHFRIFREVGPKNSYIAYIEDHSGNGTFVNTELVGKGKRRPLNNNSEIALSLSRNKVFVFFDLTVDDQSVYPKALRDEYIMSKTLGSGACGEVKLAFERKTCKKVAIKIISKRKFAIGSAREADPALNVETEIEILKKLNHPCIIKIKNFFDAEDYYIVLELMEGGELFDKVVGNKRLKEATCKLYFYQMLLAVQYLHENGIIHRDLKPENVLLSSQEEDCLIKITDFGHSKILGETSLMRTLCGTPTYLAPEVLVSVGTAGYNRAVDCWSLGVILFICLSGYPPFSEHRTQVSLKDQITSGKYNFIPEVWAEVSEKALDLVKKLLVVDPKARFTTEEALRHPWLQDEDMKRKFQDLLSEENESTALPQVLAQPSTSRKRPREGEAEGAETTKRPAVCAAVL
UniProt Q09472: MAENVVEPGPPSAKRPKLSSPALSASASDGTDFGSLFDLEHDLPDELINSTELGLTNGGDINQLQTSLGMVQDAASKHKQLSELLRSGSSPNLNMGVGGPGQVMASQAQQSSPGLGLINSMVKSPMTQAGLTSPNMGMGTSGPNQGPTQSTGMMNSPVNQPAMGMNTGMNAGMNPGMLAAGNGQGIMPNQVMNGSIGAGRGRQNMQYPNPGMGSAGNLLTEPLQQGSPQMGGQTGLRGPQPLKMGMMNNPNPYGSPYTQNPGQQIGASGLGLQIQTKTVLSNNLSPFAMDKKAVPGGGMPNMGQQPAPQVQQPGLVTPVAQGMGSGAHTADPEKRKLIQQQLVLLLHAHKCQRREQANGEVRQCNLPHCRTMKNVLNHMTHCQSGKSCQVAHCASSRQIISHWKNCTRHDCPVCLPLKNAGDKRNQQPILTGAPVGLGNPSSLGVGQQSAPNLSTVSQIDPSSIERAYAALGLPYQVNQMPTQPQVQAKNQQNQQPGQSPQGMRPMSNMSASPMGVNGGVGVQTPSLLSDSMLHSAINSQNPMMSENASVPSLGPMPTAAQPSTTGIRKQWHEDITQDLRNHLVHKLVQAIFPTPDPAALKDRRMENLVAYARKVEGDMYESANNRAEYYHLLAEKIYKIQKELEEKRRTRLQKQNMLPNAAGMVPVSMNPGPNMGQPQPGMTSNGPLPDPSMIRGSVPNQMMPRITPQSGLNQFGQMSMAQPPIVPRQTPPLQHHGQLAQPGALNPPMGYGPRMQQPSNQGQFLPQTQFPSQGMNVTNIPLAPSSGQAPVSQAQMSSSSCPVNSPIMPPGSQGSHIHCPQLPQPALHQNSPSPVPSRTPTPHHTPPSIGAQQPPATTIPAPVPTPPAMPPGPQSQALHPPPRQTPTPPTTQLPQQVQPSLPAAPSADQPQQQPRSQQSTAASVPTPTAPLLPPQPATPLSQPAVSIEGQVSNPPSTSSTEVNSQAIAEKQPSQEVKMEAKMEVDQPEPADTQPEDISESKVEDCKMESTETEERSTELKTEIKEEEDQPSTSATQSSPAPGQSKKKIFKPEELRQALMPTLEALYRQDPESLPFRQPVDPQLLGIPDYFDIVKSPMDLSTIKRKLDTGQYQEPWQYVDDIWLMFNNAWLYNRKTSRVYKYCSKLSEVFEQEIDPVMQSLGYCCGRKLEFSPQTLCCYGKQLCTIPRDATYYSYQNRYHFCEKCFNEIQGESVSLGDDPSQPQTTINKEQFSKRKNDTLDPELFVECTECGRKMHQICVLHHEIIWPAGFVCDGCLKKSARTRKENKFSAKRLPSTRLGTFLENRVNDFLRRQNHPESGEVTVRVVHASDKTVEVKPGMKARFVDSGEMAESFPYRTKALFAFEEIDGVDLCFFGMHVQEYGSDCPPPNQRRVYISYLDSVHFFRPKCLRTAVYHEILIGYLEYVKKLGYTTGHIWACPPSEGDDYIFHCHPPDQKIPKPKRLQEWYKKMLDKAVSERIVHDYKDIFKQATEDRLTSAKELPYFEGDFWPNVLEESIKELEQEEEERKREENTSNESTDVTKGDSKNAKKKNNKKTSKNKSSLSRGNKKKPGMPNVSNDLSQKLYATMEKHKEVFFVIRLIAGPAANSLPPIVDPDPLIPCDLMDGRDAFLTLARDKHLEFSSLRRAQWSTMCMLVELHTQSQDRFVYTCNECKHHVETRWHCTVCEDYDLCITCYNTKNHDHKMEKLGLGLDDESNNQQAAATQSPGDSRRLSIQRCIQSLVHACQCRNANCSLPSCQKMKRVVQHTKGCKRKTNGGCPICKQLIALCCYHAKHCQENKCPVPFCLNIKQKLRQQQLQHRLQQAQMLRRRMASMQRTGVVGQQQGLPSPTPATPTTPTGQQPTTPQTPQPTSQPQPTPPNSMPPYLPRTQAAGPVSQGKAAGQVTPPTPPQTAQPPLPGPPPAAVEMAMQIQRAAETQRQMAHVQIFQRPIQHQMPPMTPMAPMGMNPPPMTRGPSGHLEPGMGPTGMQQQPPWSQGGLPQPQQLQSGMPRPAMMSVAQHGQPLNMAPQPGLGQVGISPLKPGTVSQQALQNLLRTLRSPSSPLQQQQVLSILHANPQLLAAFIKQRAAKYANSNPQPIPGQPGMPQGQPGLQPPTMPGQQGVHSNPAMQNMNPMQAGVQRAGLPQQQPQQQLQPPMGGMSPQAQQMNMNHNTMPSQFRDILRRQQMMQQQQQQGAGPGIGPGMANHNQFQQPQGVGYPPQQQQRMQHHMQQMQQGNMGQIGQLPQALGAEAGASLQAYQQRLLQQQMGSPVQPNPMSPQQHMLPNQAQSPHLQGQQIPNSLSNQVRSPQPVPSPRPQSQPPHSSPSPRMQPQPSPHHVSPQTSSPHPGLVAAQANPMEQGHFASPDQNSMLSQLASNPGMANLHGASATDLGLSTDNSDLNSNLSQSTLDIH
UniProt Q92831: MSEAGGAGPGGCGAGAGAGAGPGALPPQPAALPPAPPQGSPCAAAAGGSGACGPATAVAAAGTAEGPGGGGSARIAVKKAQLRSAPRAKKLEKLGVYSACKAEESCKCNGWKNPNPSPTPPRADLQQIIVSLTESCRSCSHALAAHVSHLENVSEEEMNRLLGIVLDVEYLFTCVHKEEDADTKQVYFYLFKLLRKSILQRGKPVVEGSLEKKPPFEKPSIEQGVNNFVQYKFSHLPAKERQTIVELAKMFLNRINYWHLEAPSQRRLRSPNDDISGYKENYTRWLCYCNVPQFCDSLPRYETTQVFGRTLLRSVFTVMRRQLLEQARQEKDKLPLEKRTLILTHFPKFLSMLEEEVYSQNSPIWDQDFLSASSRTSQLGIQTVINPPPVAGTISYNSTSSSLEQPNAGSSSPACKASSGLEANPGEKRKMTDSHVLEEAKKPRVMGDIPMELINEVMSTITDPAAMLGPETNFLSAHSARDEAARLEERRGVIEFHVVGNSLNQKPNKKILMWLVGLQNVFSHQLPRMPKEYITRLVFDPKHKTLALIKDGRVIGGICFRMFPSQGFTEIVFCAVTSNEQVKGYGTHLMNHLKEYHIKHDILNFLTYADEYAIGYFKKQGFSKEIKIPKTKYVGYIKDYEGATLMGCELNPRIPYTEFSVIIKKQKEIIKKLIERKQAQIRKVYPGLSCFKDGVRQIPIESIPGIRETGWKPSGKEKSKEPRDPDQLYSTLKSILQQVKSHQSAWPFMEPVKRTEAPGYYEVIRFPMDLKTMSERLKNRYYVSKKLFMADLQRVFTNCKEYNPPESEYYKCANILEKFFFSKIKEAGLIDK
UniProt Q9Z265: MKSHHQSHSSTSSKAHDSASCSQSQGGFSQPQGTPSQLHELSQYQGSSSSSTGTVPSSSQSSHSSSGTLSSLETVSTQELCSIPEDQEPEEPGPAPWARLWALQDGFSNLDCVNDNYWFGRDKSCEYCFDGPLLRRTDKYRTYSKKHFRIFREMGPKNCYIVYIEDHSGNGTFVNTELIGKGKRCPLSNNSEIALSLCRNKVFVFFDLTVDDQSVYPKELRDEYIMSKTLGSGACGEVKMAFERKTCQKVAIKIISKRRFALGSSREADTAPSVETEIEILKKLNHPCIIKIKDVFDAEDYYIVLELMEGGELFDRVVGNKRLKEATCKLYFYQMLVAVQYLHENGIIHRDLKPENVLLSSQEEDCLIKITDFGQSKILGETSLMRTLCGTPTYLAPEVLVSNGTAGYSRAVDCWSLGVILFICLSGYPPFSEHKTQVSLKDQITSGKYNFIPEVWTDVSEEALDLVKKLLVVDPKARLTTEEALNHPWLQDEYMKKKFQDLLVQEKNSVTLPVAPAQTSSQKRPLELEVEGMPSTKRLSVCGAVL

Assay [1] has as its target SIRT1 (human (endogenous in HEK293)) (UniProt Q96EB6). Description: co-IP; endogenous proteins; HEK293 cell lysates immunoprecipitated with control IgG, anti-SIRT1 or anti-CHK2 antibodies, 4 °C overnight, protein A/G sepharose; washed with 50 mM Tris pH 7.4, 1% Triton X-100, 0.5% NP-40, 150 mM NaCl.
In assay [2] the target is GST-SIRT1 (UniProt Q96EB6). Description: pull-down; GST pull-down in vitro; recombinant protein incubated with bacterially expressed GST fusion for 1 h at 30 °C; both purified.
Assay [3] deals with CHK2 (human (endogenous in HEK293)) (UniProt O96017). Description: co-IP; Flag-tagged p300 or PCAF individually transfected into HEK293 cells; IP and western blot; which partner was precipitated is not told.
Assay [4] concerns the target CHK2 K520Q reintroduced into HCT116 cells (UniProt O96017). Briefly: cross-linking; 100 μl whole-cell lysate of HCT116 cells with 5 μl of 2.3% (v/v) glutaraldehyde, 37 °C, 5 min; western blot with antibody against CHK2. In general terms: A western blot detects proteins with antibodies after separation by electrophoresis.
For assay [5], the target named is T1, SIRT1 (mouse embryonic fibroblasts) (mouse (endogenous in MEFs)) (UniProt Q923E4).
T1 sequence: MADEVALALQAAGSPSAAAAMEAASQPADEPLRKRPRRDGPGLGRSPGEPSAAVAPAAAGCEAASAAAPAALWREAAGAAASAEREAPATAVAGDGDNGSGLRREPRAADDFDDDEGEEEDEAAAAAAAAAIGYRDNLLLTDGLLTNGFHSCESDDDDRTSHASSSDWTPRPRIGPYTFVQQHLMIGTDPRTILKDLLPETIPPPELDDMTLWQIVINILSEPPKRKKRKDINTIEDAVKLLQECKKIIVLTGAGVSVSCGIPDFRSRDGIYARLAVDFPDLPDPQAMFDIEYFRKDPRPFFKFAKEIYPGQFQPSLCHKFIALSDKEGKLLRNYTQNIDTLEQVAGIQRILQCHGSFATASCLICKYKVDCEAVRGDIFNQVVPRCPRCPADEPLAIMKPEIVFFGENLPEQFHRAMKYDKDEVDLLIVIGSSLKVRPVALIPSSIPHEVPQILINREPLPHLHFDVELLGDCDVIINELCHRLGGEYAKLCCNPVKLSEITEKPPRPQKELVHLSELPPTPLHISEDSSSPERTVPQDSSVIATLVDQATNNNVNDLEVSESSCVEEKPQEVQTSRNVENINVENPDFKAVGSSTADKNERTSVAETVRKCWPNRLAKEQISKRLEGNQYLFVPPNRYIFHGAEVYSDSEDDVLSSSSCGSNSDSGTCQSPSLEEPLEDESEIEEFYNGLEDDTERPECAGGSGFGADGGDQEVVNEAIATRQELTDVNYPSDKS
Description: co-IP; endogenous proteins in mouse embryonic fibroblasts (Fig. S1A).

Assay [6] deals with His-CHK2 (UniProt O96017). Description: co-IP; HEK293 cells co-transfected with Flag-CHK2 (WT or mutant) and His-CHK2, with or without 0.5 μM EX527 for 6 h; IP with anti-His, blot for Flag.
Assay [7] has as its target CHK2 wild type reintroduced into HCT116 cells (UniProt O96017). Briefly: cross-linking; 100 μl whole-cell lysate of HCT116 cells with 5 μl of 2.3% (v/v) glutaraldehyde, 37 °C, 5 min; western blot with antibody against CHK2.
Assay [8] addresses CHK2 K520R reintroduced into HCT116 cells (UniProt O96017). The assay is described as above.

These are yes or no findings as the source states them, for the method shown. For some assays here: In cells and extracts the contact can be indirect. Some binding calls cover weakened binding; strength is not graded here.

Consider CHK2 (from UniProt O96017 1-543), for which, in assay [1], the binding result is “binds”. Turning to “Recombinant CHK2 (from UniProt O96017 1-543)”, the binding result in assay [2] is listed as “binds”. For the substance “Flag-tagged p300 (from UniProt Q09472 1-2414) (enzyme)”, in assay [3], the binding result is on record as “binds”.

Turning to “CHK2 K520Q reintroduced into HCT116 cells (from UniProt O96017 1-543)”, in assay [4], the binding entry is listed as “binds”. Consider “Flag-tagged PCAF (from UniProt Q92831 1-832) (enzyme)”, for which, in assay [3], the binding result was “binds”. Regarding “CHK2 (mouse embryonic fibroblasts) (from UniProt Q9Z265 1-546)”, the binding result in assay [5] is on record as “binds”. For “Flag-K520R CHK2 (from UniProt O96017 1-543)”, the binding entry in assay [6] is listed as “binds”.

Regarding “Flag-WT CHK2 (from UniProt O96017 1-543)”, the binding entry in assay [6] is given as “binds”. For “CHK2 wild type reintroduced into HCT116 cells (from UniProt O96017 1-543)”, the binding entry in assay [7] is “binds”.

For “CHK2 K520R reintroduced into HCT116 cells (from UniProt O96017 1-543)”, in assay [8], the binding entry is recorded as “binds”. For “Flag-CHK2 K520Q (from UniProt O96017 1-543)”, in assay [6], the binding entry is given as “binds”.
